# In PubChem BioAssay AID493014 (National Center for Advancing Translational Sciences (NCATS), 2011):
# This is one part of the list. These are further read-outs of the screen, such as a control signal, another cell line or another target. No call is given for them. Most of these compounds were active or inconclusive in the main read-out, so they are no random draw. The note in brackets gives the kind of curve behind each potency; many fits are weak.
# Assay: qHTS Assay to Find Inhibitors of Chronic Active B-Cell Receptor Signaling
# Details: ABC-DLBCL IkBa-CBG/CBR reporter, luminescence ratio (green luciferase fused to IkBa over red control in TMD8 lymphoma cells), 4 h; measured here: CBR red luminescence, cell number
# How it was run: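 Cell line TMD8 (human ABC DLBCL), stably expressing tet-inducible CBG68-IkBa fusion and CBR; IMDM/0.5% FBS; cpd up to 46 uM; dox induction, 4 h, 37C/5% CO2; dual luminescence; green/red ratio; MG132 control.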
row,SMILES,AC50
1,O=C(Nc1ccc(C(=O)O)cc1)/C(=C\C=C\c1ccccc1)NC(=O)c1cccc(Br)c1,"17.8 µM [falling, single point]"
2,CC(c1ccccc1)N1C(=O)c2ccc(C(=O)Nc3ccc(Br)cc3C(=O)O)cc2C1=O (configuration not stated),"22.4 µM [falling, single point]"
